Some entries share one result that the patent states for a list of compounds.
Molecular target: T1, Yeast Nrk1 (Saccharomyces cerevisiae, UniProt P53915)
T1 construct: His tag (from vector pSG04) (N); made in house; host or cells: E. coli
T1 sequence (P53915 1-240): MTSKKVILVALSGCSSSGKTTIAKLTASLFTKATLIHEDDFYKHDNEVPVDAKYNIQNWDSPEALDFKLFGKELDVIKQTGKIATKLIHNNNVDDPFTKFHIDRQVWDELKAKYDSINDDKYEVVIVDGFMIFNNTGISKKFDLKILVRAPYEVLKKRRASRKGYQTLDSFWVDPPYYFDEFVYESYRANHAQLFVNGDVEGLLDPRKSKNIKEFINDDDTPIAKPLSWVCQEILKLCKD
Test: Nicotinamide riboside phosphorylation assay (specific activity, HPLC)
Type: biochemical, S. cerevisiae
Conditions: relative to maximal specific activity of the enzyme
Experimental: Reactions (0.2 mL) containing 100 mM NaCl, 20 mM NaHEPES pH 7.2, 5 mM β-mercaptoethanol, 1 mM ATP, 5 mM MgCl2, and 500 μM nicotinamide riboside or alternate nucleoside, were incubated at 30° C. and terminated by addition of EDTA to 20 mM and heating for 2 minutes at 100° C. Specific activity assays, containing 50 ng to 6 μg enzyme depending on the enzyme and substrate, were incubated for 30 minutes at 30° C. to maintain initial rate conditions. Reaction products were analyzed by HPLC on a strong anion exchange column with a 10 mM to 750 mM gradient of KPO4 pH 2.6.
The S. cerevisiae NRK1 gene was amplified from total yeast DNA with primers 7448 (5′-CGCTGCACATATGACTTCGAAAAAAGTGATATTAGTTGC-3′; SEQ ID NO:26) and 7449 (5′-CCGTCTCGAGCTAATCCTTACAAAGCTTTAGAATCTCTTGG-3′; SEQ ID NO:27). The amplified DNA fragment was cloned in vector pSG04 (Ghosh and Lowenstein (1997) Gene 176:249-255) for E. coli expression using restriction sites for NdeI and XhoI included in primer sequences and the resulting plasmid was designated pB446. Samples of cDNA made from human lymphocytes and spleen were used as a template for amplification of human NRK1 using primers 4754 (5′-CCGGCCCATGGCGCACCACCATCACCACCATCATATGAAAACATTTATCATTGGAATCAGTGG-3′; SEQ ID NO:28) and 4755 (5′-GCGGGGATCCTTATGCTGTCACTTGCAAACACTTTTGC-3′; SEQ ID NO:29). […]

O=c1ccn([C@@H]2O[C@H](CO)[C@@H](O)[C@H]2O)c(=O)[nH]1 [Uridine, uridine]
Share of maximal specific activity retained: less than 7%

Reference: patent US8197807B2, “Nicotinamide riboside kinase compositions and methods for using the same” (Trustees of Dartmouth College, priority 2006, dated 2012)
